Measured data: PubChem BioAssay AID1508597 (Cure First, 2020)
Shown is a random part of the about 2,100 reagents, in one setting of the screen. 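Calls flag viability under 80% in either arm, not effects specific to rucaparib; the reference for percent is not stated.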 Entries without a mark were called inactive. The numbers tell different reagents against one gene apart. A reagent listed more than once was tested more than once; the source does not tell the runs apart. Not given: the 100% reference.

- Test: 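Knock-downs altering ovarian cancer cell survival with or without PARP inhibitor rucaparib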 (primary screen)
- Cell system: human ovarian carcinoma lines grown from tumours: OCI-P5x (papillary serous) and OCI-C5x (clear cell)
- Reagent: siRNA pool against human genes, 1.25 pmol siRNA per well
- Timing: 72 h or 96 h, depending on the cell culture
- Challenge: rucaparib 20 µM (about IC30) or vehicle, present until read-out
- Rucaparib or vehicle: Vehicle
- Cell line: OCI-C5x (clear cell)
- Detection: 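Luminescent ATP-based viability assay read 72 or 96 h after transfection, depending on culture, given as normalised percent viability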
- Reading the numbers: viability, normalised: higher = more viable cells remaining
- Call rule: 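Active when normalised viability falls below 80 percent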
- Meaning of the calls: active = viability under 80%; inactive = viability 80% or more

IL4, technical replicate 1: viability, normalised (%) = 27.7 (active)
IL4, technical replicate 2: viability, normalised (%) = 38.2 (active)
IL4, technical replicate 3: viability, normalised (%) = 31.9 (active)
CDC42BPB, technical replicate 1: viability, normalised (%) = 68.5 (active)
CDC42BPB, technical replicate 2: viability, normalised (%) = 62.4 (active)
CDC42BPB, technical replicate 3: viability, normalised (%) = 40.9 (active)
CDKL2, technical replicate 1: viability, normalised (%) = 102
CDKL2, technical replicate 2: viability, normalised (%) = 70.2 (active)
CDKL2, technical replicate 3: viability, normalised (%) = 66.2 (active)
CDK12 #1, technical replicate 1: viability, normalised (%) = 55.9 (active)
CDK12 #1, technical replicate 1: viability, normalised (%) = 54.7 (active)
CDK12 #1, technical replicate 2: viability, normalised (%) = 50.1 (active)
CDK12 #1, technical replicate 2: viability, normalised (%) = 45.9 (active)
CDK12 #1, technical replicate 3: viability, normalised (%) = 46.6 (active)
CDK12 #1, technical replicate 3: viability, normalised (%) = 40.6 (active)
CDK12 #2, technical replicate 1: viability, normalised (%) = 56.9 (active)
CDK12 #2, technical replicate 2: viability, normalised (%) = 75.7 (active)
CDK12 #2, technical replicate 3: viability, normalised (%) = 51.1 (active)
TKFC, technical replicate 1: viability, normalised (%) = 26.9 (active)
TKFC, technical replicate 2: viability, normalised (%) = 25.3 (active)
TKFC, technical replicate 3: viability, normalised (%) = 24.3 (active)

Copied from the list.
IL4, technical replicate 2, viability, normalised (%) = 38.2 (active)
CDK12 #2, technical replicate 3, viability, normalised (%) → 51.1 (active)
